From the supplement of paper PMC10735217 come the findings set out here.

The subject of the experiment is HEK293A TEAD-LUC reporter. Briefly: TEAD-luciferase reporter activity (YAP activation), robust Z score vs plate; higher = stronger YAP/TEAD activation. The settings on record: 24 h.

The structures appear in SMILES notation. Counter-ions that a name gives are not always drawn. Some of the results follow. This data set is noisy: repeats of one test often differ as much as different tests do.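 In a drug-repurposing library screen, luminescence reads luciferase driven by eight TEAD-binding elements, stably integrated into human kidney-derived cells. Compounds scoring over five robust Z scores above the plate mean are called hits.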

For `CC(C)C[C@H](NC(=O)[C@H](Cc1ccccc1)NC(=O)c1cnccn1)B(O)O` [Bortezomib], the TEAD-luciferase reporter activity (compound concentration: 200 nM) is inactive: -0.14, the TEAD-luciferase reporter activity (compound concentration: 2 uM) was inactive: -0.102 and the TEAD-luciferase reporter activity (compound concentration: 10 uM) is inactive: 1.17.
Turning to `COC(=O)Nc1nc2cc(C(=O)c3ccccc3)ccc2[nH]1` [mebendazole chewable tablet], the TEAD-luciferase reporter activity (compound concentration: 2 uM) was inactive: 0.231.
Consider `COC(=O)Nc1nc2cc(C(=O)c3ccccc3)ccc2[nH]1` [Mebendazole], for which the TEAD-luciferase reporter activity was inactive: 4.01 (compound concentration: 200 nM) and inactive: 1.91 (compound concentration: 10 uM).
Take `CO[C@H]1CC[C@H](N2C(=O)CNc3ncc(-c4ccc(C(C)(C)O)nc4)nc32)CC1`: the TEAD-luciferase reporter activity by setting is: (compound concentration: 200 nM) inactive: 3.9; (compound concentration: 2 uM) inactive: -1.94; (compound concentration: 10 uM) inactive: -1.54.
The like results for `CCc1cc(C(N)=S)ccn1` [Ethionamide] were, in that order, inactive: 0.169, inactive: -0.588 and inactive: 2.21.
The like results for `CC(C)C[C@H](NC(=O)[C@H](Cc1ccccc1)C[C@@H](O)[C@H](Cc1ccccc1)NC(=O)OC(C)(C)C)C(=O)N[C@@H](Cc1ccccc1)C(N)=O` were, in that order, inactive: -1.16, inactive: 1.85 and inactive: 0.418.
With `NC(CCC(=O)NCCS(=O)(=O)O)C(=O)O` (stereo not given), the TEAD-luciferase reporter activity was inactive: -1.19 (compound concentration: 200 nM), inactive: -1.51 (compound concentration: 2 uM) and inactive: -1.11 (compound concentration: 10 uM).
For `CS(=O)(=O)c1ccc(C(=O)Nc2ccc(Cl)c(-c3ccccn3)c2)c(Cl)c1` [Vismodegib], the TEAD-luciferase reporter activity is, setting by setting: (compound concentration: 200 nM) inactive: -3.96; (compound concentration: 2 uM) inactive: -0.472; (compound concentration: 10 uM) inactive: -0.528.
For `CN(C)/C(N)=N\c1ccccc1N1CCOCC1`, the TEAD-luciferase reporter activity is, setting by setting: (compound concentration: 200 nM) inactive: -2.76; (compound concentration: 2 uM) inactive: -0.619; (compound concentration: 10 uM) inactive: -0.134.
As to `CCCc1ccc(NS(=O)(=O)Cc2ccccc2)c(=O)n1CC(=O)NCc1ccc(N)nc1C`, the TEAD-luciferase reporter activity was inactive: 1.49 (compound concentration: 200 nM), inactive: 1.33 (compound concentration: 2 uM) and inactive: -1.03 (compound concentration: 10 uM).
The like results for `CS(=O)(=O)Nc1ccc2c(c1)C(O)CC1(CCN(C3CCc4cc(C#N)ccc4C3)CC1)O2` (stereo not given) were, in that order, inactive: -0.944, inactive: 0.0472 and inactive: -0.516.
With `CC(C)C(=O)c1c(C(C)C)nn2ccccc12` [ibudilast], the TEAD-luciferase reporter activity was inactive: -0.0899 (compound concentration: 200 nM), inactive: 1.5 (compound concentration: 2 uM) and inactive: -1.8 (compound concentration: 10 uM).
For the compound `CC(=O)OCC(CCn1cnc2cnc(N)nc21)COC(C)=O`, the TEAD-luciferase reporter activity is inactive: -1.39 (compound concentration: 200 nM) and inactive: 0.295 (compound concentration: 10 uM).
For `CC(=O)OCC(CCn1cnc2cnc(N)nc21)COC(C)=O` [famciclovir], for the setting “compound concentration: 2 uM”, the TEAD-luciferase reporter activity is inactive: 0.411.
`CC(OC(=O)NCC1(CC(=O)O)CCCCC1)OC(=O)C(C)C` (stereo not given) [gabapentin enacarbil]: the TEAD-luciferase reporter activity (compound concentration: 200 nM) was inactive: -2.16, the TEAD-luciferase reporter activity (compound concentration: 2 uM) is inactive: 0.352 and the TEAD-luciferase reporter activity (compound concentration: 10 uM) was inactive: -1.14.
In the case of `CCOC(=O)C(COC(=O)Cc1ccc(NC(=O)c2ccccc2-c2ccc(C(F)(F)F)cc2)c(C(=O)N(C)C)c1)(C(=O)OCC)c1ccccc1` [granotapide], the TEAD-luciferase reporter activity was inactive: 3.76 (compound concentration: 200 nM), inactive: 0.718 (compound concentration: 2 uM) and inactive: -0.921 (compound concentration: 10 uM).
Consider `CCn1nc2c(-c3ccc(Cl)cc3)c(-c3cnc(C)nc3)c(=O)n(Cc3ccc(C(F)(F)F)nc3C)n2c1=O`, for which the TEAD-luciferase reporter activity is, setting by setting: (compound concentration: 200 nM) inactive: 1.44; (compound concentration: 2 uM) inactive: -0.599; (compound concentration: 10 uM) inactive: 0.974.
The like results for `CC(=O)O[C@]1(C(C)=O)CCC2C3C=C(C)C4=CC(=O)CC[C@]4(C)C3CC[C@@]21C` (stereo not given in full) [megestrol acetate, Par] were, in that order, inactive: -1.34, inactive: 1.24 and inactive: 0.558.
Regarding `CCN1C(=O)CNc2ncc(-c3ccc(-c4nc[nH]n4)nc3C)nc21`, the TEAD-luciferase reporter activity by setting is: (compound concentration: 200 nM) inactive: 0.295; (compound concentration: 2 uM) inactive: -0.386; (compound concentration: 10 uM) inactive: -1.37.
On to `CC(=O)Nc1ccc(OC(=O)Cc2ccc(C(=O)c3ccc(C)cc3)n2C)cc1`, for which the TEAD-luciferase reporter activity is inactive: -0.119 (compound concentration: 200 nM), inactive: -0.525 (compound concentration: 2 uM) and inactive: 1.81 (compound concentration: 10 uM).
For the compound `O=C1CNC(=O)/C1=C/NCc1ccccc1` [beprodone], the TEAD-luciferase reporter activity (compound concentration: 2 uM) was inactive: 0.581.
As to `O=C1CNC(=O)/C1=C/NCc1ccccc1` [beprodone, MarcoPolo], the TEAD-luciferase reporter activity is, setting by setting: (compound concentration: 200 nM) inactive: 0.833; (compound concentration: 10 uM) inactive: -1.31.
Turning to `C[C@H](CC[C@@H](O[C@@H]1O[C@H](CO)[C@@H](O)[C@H](O)[C@H]1O[C@@H]1O[C@H](CO)[C@@H](O)[C@H](O)[C@H]1O)C(C)(C)O)[C@H]1CC[C@@]2(C)[C@@H]3CC=C4[C@@H](CC[C@H](O[C@@H]5O[C@H](CO[C@@H]6O[C@H](CO)[C@@H](O)[C@H](O)[C@H]6O)[C@@H](O)[C@H](O)[C@H]5O)C4(C)C)[C@]3(C)[C@H](O)C[C@]12C` [Mogroside IV], the TEAD-luciferase reporter activity is inactive: -0.117 (compound concentration: 200 nM), inactive: -2.04 (compound concentration: 2 uM) and inactive: -0.979 (compound concentration: 10 uM).
As for `CCc1ccc(N(CC(C)C)S(=O)(=O)c2ccc(OCC3CCOCC3)c(CO)c2)cc1`, the TEAD-luciferase reporter activity by setting is: (compound concentration: 200 nM) inactive: 2.13; (compound concentration: 2 uM) inactive: 0.297; (compound concentration: 10 uM) inactive: -0.201.
Regarding `CC(C)C[C@@H](N)C(=O)N[C@H]1C(=O)N[C@@H](CC(N)=O)C(=O)N[C@H]2C(=O)N[C@H]3C(=O)N[C@H](C(=O)N[C@H](C(=O)O)c4cc(O)cc(O)c4-c4cc3ccc4O)[C@H](O)c3ccc(c(Cl)c3)Oc3cc2cc(c3O[C@@H]2O[C@H](CO)[C@@H](O)[C@H](O)[C@H]2O[C@H]2C[C@](C)(N)[C@H](O)[C@H](C)O2)Oc2ccc(cc2Cl)[C@H]1O` [Norvancomycin (hydrochloride)], the TEAD-luciferase reporter activity is inactive: 1.34 (compound concentration: 200 nM) and inactive: -0.469 (compound concentration: 10 uM).
